Results are given in words; binding and its absence hold for the method and conditions named. For some assays here: Binding seen in cells or lysates may run through a third protein. Some binding calls cover weakened binding; strength is not graded here. For some assays here: Where a sequence is shown, tags or fusion partners need not be part of it. Values belong to the binder of their own block, whether it stands above or below them.
Legend:
FLAG-TRIM49 (human) = target: T1, FLAG-TRIM49 (human) (UniProt P0CI25); assay: co-IP; FLAG-tagged and GFP-tagged TRIMs co-expressed in HEK293T; lysis in 0.5% IGEPAL, 150 mM NaCl, 50 mM Tris-HCl pH 7.5, 5 mM MgCl2; anti-FLAG or anti-GFP cross-linked to Protein A/G beads, 2 h 4 °C; western blotting
T1 sequence: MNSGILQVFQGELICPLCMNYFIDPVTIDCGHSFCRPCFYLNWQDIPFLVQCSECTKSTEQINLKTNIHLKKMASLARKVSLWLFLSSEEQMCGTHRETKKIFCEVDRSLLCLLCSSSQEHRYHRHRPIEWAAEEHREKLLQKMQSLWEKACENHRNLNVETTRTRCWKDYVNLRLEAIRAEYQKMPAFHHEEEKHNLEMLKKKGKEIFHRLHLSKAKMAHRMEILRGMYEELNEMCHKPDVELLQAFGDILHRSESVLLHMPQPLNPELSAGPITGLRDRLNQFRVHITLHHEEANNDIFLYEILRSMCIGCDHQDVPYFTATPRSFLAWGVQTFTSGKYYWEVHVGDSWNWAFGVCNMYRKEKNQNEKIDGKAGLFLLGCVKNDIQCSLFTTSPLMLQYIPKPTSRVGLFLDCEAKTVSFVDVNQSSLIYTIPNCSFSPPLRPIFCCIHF

[1] = target: TRIM15 RING domain (residues 2-80) (human) (UniProt Q9C019); assay: SEC-MALS; SEC-MALLS; Superdex 200 Increase 10/300; 120 µl sample at 1–6 mg/ml; 50 mM HEPES pH 7.5, 150 mM NaCl, 0.5 mM TCEP, 3 mM NaN3; 0.5 ml/min; both purified

binding (FLAG-TRIM49 (human)): binds
B1: GFP-TRIM51 (protein, UniProt Q9BSJ1 1-452)
chain: MNSGILQVFQRALTCPICMNYFLDPVTIDCGHSFCRPCLYLNWQDTAVLAQCSECKKTTRQRNLNTDICLKNMAFIARKASLRQFLSSEEQICGMHRETKKMFCEVDKSLLCLPCSNSQEHRNHIHCPIEWAAEERREELLKKMQSLWEKACENLRNLNMETTRTRCWKDYVSLRIEAIRAEYQKMPAFLHEEEQHHLERLRKEGEDIFQQLNESKARMEHSRELLRGMYEDLKQMCHKADVELLQAFGDILHRYESLLLQVSEPVNPELSAGPITGLLDSLSGFRVDFTLQPERANSHIFLCGDLRSMNVGCDPQDDPDITGKSECFLVWGAQAFTSGKYYWEVHMGDSWNWAFGVCNNYWKEKRQNDKIDGEEGLFLLGCVKEDTHCSLFTTSPLVVQYVPRPTSTVGLFLDCEGRTVSFVDVDQSSLIYTIPNCSFSPPLRPIFCCSHF

binding [1]: no binding (tested: 1–6 mg/ml)
B2: TRIM15 RING domain (residues 2-80) (domain or fragment, UniProt Q9C019 2-80)
chain: PATPSLKVVHELPACTLCAGPLEDAVTIPCGHTFCRLCLPALSQMGAQSSGKILLCPLCQEEEQAETPMAPVPLGPLGE
